Among the data in PubChem BioAssay AID2685 (National Center for Advancing Translational Sciences (NCATS), 2010) are cell number change and AC50 values, retold here.

The assay is described as follows: qHTS Assay for Lipid Storage Modulators in Drosophila S3 Cells.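 For cell number change: cells counted by Cell Tracker Red CMTPX staining in the red channel.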 The following applies: BODIPY lipid droplet fluorescence, 18-24 h; for cell number change: measured here: cell count max response, cells fed with added oleic acid. The method in brief: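 Drosophila S3 cells got compounds at several concentrations plus oleic acid (400 uM solution). Laser-scanning cytometry with 488 nm excitation read lipid droplets at 500-530 nm and cells at 575-640 nm. Percent activity was relative to 20 uM Triacsin C.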
On the technique in general: In qHTS, concentration-response curves come from the screen itself.

The mark [1] stands for this setting: measured here: cell number channel AC50, cells fed with added oleic acid.
Setting [2] is: measured here: lipid fluorescence (Fed channel) AC50, cells fed with added oleic acid.

Some of the results follow. These are further read-outs of the screen, such as a control signal, another cell line or another target. No call is given for them. Compounds called inactive in the main read-out are mostly missing here. The note in brackets gives the kind of curve behind each potency; many fits are weak.

On to `COc1ccc(NC(=O)CSc2nc3[nH]ncc3c(=O)n2-c2ccccc2OC)cc1OC`, for which the cell number change stood at 34.5%. For the same compound, the AC50 (commonly the concentration at which the activity in the assay is half-maximal) under setting [1] is 1.84 µM [rising, partial curve]. Moreover, under setting [2], the concentration at half-maximal activity (AC50) was 5.17 µM [rising, partial curve].

Regarding `Cc1cc(Br)cc2c(C(=O)NCC3CCCO3)cc(-c3cccs3)nc12` (configuration not stated), the cell number change is -12.2%. In addition, under setting [2], the AC50 was 1.64 µM [falling, partial curve]. As to `Cc1ccc(C(=O)Cc2cc3ccccc3oc2=O)c(C)c1`, the cell number change was determined as 70.9%.

Turning to `Cc1noc(/C=C/N(C)C)c1S(=O)(=O)N(C)Cc1ccc(F)cc1`, under setting [2], the AC50 is 29.1 µM [falling, single point]. Take `Cc1cccc(N2CC(C(=O)Nc3nc4ccc(S(C)(=O)=O)cc4s3)CC2=O)c1C` (configuration not stated): the cell number change amounted to 14.3%. Also, under setting [2], the half-maximal activity concentration (AC50) was 0.103 µM [falling, partial curve, poor fit]. Consider `Cc1oc(-c2ccccc2F)nc1CSCC(=O)NCc1ccc2c(c1)OCO2`, for which the cell number change is -1.28%. In addition, the half-maximal activity concentration (AC50) under setting [2] was 6.51 µM [falling, single point].

On to `COc1cc(/C=N/Nc2ccc(Cl)nn2)cc(OC)c1O`, for which the cell number change was 9.91%. Besides, the half-maximal activity concentration (AC50) under setting [2] is 0.291 µM [rising, full curve]. As for `O=C(CCn1c(=S)oc2ccccc21)N1CCN(c2ccc(F)cc2)CC1`, the cell number change came to 16%. Turning to `CCOC(=O)N1CCC(Nc2cc(C)nc3c(-c4ccccc4OC)c(C)nn23)CC1`, the cell number change amounted to 10.9%. The AC50 under setting [2] is 0.092 µM [rising, full curve]. Regarding `Cc1ccccc1CCN(C(=O)c1csnn1)C(C(=O)NC1CCCC1)c1ccncc1` (configuration not stated), the cell number change came out at 10.7%. In addition, the AC50 under setting [2] is 29.1 µM [falling, single point]. On to `COc1ccccc1N1CCN(S(=O)(=O)c2cn(C)nc2C)CC1`, for which the cell number change stood at 26.7%. Further, the AC50 under setting [2] is 6.51 µM [rising, partial curve, poor fit]. Regarding `CCOC(=O)c1cc2c(N)c(C(=O)c3cc(C#N)c(SC)nc3C)sc2nc1C`, the cell number change worked out at 19.4%. The half-maximal activity concentration (AC50) under setting [2] was 0.58 µM [rising, full curve].

Consider `COc1ccc(-n2nc(C(=O)NCC(=O)NC3CCCC(C)C3C)c3ccccc3c2=O)cc1` (configuration not stated), for which the cell number change is -6.76%.

Turning to `COc1cccc(NC(=O)CSc2ccc(-c3sc(C)nc3C)nn2)c1`, the cell number change is -8.5%. In addition, the AC50 under setting [2] is 4.47 µM [rising, full curve, poor fit]. Turning to `CCOC(=O)c1ccc(NC(=O)CN(Cc2ccc(Cl)cc2)S(C)(=O)=O)cc1`, the cell number change was determined as 34.7%. For the same compound, the AC50 under setting [1] is 5.17 µM [rising, partial curve]. Further, the AC50 under setting [2] was 6.51 µM [rising, single point]. For `CC(C)=C1C2CCC1C(C(=O)NCc1ccccc1)C2C(=O)O` (configuration not stated), the half-maximal activity concentration (AC50) under setting [2] is 18.4 µM [falling, partial curve]. For `COCC(C)n1c(SCc2nc(N)nc(Nc3ccccc3C)n2)nc2ccccc2c1=O` (configuration not stated), the cell number change worked out at 27.3%. Further, the concentration at half-maximal activity (AC50) under setting [1] is 0.164 µM [rising, full curve, poor fit]. Under setting [2], the AC50 was 9.2 µM [rising, partial curve].
